Experimental data from patent US20050026285A1 (Harvard, published 2005).
These are yes or no findings as the source states them, for the method shown. Some entries that bind do so weakly or less than the wild type. Tags and fused reporters may be left off the sequences shown.

Tests used:
[1] = biological target: T1, endogenous TRAF2 of 293T cells (human) (UniProt Q12933); assay: anti-MYC IP from transfected 293T cells, blot with anti-TRAF2 mAb
T1 sequence (looked up): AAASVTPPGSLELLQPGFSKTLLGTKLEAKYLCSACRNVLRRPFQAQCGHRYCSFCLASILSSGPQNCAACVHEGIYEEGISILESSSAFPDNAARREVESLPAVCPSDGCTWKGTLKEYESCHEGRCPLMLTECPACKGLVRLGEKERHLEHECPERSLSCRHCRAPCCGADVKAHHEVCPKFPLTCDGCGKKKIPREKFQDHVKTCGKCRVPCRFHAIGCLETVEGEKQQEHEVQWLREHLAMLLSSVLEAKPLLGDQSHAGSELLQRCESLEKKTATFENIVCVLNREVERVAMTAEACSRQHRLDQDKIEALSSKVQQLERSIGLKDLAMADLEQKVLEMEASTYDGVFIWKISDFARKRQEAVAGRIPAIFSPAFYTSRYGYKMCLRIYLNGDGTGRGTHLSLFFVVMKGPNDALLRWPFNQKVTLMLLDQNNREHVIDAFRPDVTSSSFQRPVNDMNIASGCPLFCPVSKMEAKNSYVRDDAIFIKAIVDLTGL

[2] = biological target: T1, endogenous TRAF2 of 293T cells (human); assay: anti-MYC IP from transfected 293T cells, blot with anti-TRAF antibodies

B1: MYC-tagged KRC tr (KRC amino acids 204-1055 with N-terminal myc epitope tag) (protein, not shown: small tags and cut ends)
chain: PSVLQKHIRSHTGERPYPCGPCGFSFKTKSNLYKHRKSHAHRIKAGLASGMGGEMYPHGLEMERIPGEEFEEPTEGESTDSEEETSATSGHPAELSPRPKQPLLSSGLYSSGSHSSSHERCSLSQSSTAQSLEDPPPFVEPSSEHPLSHKPEDTHTIKQKLALRLSERKKVIDEQAFLSPGSKGSTESGYFSRSESAEQQVSPPNTNAKSYAEIIFGKCGRIGQRTAMLTATSTQPLLPLSTEDKPSLVPLSVPRTQVIEHITKLITINEAVVDTSEIDSVKPRRSSLSRRSSMESPKSSLYREPLSSHSEKTKPEQSLLSLQHPPSTAPPVPLLRSHSMPSAACTISTPHHPFRGSYSFDDHITDSEALSRSSHVFTSHPRMLKPQPAIELPLGGEYSSEEPGPSSKDTASKPSDEVEPKESELTKKTKKGLKTKGVIYECNICGARYKKRDNYEAHKKYYCSELQIAKPISAGTHTSPEAEKSQIEHEPWSQMMHYKLGTTLELTPLRKRRKEKSLGDEEEPPAFESTKSQFGSPGPSDAARNLPLESTKSPAEPSKSVPSLEGPTGFQPRTPKPGSGSESGKERRTTSKEISVIQHTSSFEKSDSLEQPSGLEGEDKPLAQFPSPPPAPHGRSAHSLQPKLVRQPNIQVPEILVTEEPDRPDTEPEPPPKEPEKTEEFQWPQRSQTLAQLPAEKAPPKKKRLRLAEMAQSSGESSFESSVPLSRSPSQESNVSLSGSSRSASFERDDHGKAEAPDPSSDMRPKPLGTHMLTVPSHHPHAREMRRSASEQSPNVSHSAHMTETRSKSFDYGSLSLTGPSAPAPVAPPAGEAPPERRKCFLVRSPSLSRPP
[1]
  binding: binds
[2]
  binding: binds
